PubChem BioAssay AID504784 – Drosophila RNAi Screening Center | 2011
In all, the deposit lists about 17,000 reagents; this is a random part of those with a known target gene and a result. 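Each column is one replicate's B-score; the combined score over replicates was not deposited, so single values may mislead.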 Names joined by + are all predicted targets of the reagent. Further read-outs or replicates are left out here. Reagent sequences are not shown.

Screen: 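Search for regulators of lipid droplet storage in oleate-fed fly cells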 (primary screen)
Cell system: Drosophila Kc167 embryonic cells
Knock-down reagent: long dsRNA against Drosophila genes, about 250 ng dsRNA per well
Time to read-out: 4 days
Challenge: cells fed 400 µM oleic acid bound to BSA
Detection: 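Cells imaged and segmented; ratio of lipid droplet area to nuclear area, log-transformed, then normalised as a B-score over the screen; higher means more stored lipid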
Reading the numbers: droplet/nuclear area B-score: higher = more stored lipid (overstorage)

droplet/nuclear area B-score, replicate 1	droplet/nuclear area B-score, replicate 2	gene	DRSC id
0.452	1.25	CG14490	DRSC06461
-2.24	0.0211	Nepl15 (Neprilysin-like 15)	DRSC15630
-0.819	0.635	CG5377	DRSC15783
-0.503	-0.584	Osi16 (Osiris 16)	DRSC12135
-0.864	0.664	Osi16 (Osiris 16)	DRSC21323
0.878	-0.107	CG4049	DRSC04443
-1.06	-2.22	CG42671	DRSC09093
-0.954	-1.69	CG42671	DRSC10321
-0.0466	-0.0187	CR33328 (retired record)	DRSC22954
0.28	-0.554	dmpd (dampened)	DRSC06092
1.73	0.0265	CG31102	DRSC14260

Reformatted: results already given
{"gene": "CG14490", "DRSC id": "DRSC06461", "droplet/nuclear area B-score, replicate 1": 0.452, "droplet/nuclear area B-score, replicate 2": 1.25}
{"gene": "Nepl15 (Neprilysin-like 15)", "DRSC id": "DRSC15630", "droplet/nuclear area B-score, replicate 1": -2.24, "droplet/nuclear area B-score, replicate 2": 0.0211}

The results go on:
droplet/nuclear area B-score, replicate 1	droplet/nuclear area B-score, replicate 2	gene	DRSC id
1.47	1.42	YME1L (YME1 like ATPase)	DRSC04378
2.47	0.015	zfh1 (Zn finger homeodomain 1)	DRSC14014
0.915		zfh1 (Zn finger homeodomain 1)	DRSC17098
2.64	-0.0264	Met75Ca + Met75Cb	DRSC09549
-1.36	-0.108	Met75Ca + Met75Cb	DRSC11221
0.842	-0.551	CAH9 (Carbonic anhydrase 9)	DRSC15963
-0.701	-0.612	CG13047	DRSC09928
1.1	-1.42	CG1090	DRSC12150
-1.67	1.33	CG1090	DRSC21604
-1.07	-1.14	CG13031	DRSC09911
1.75	-0.0741	SPARC (Secreted protein, acidic, cysteine-rich)	DRSC14123
0.243	0.681	wapl (wings apart-like)	DRSC18851
-0.833	-0.861	Ppat-Dpck	DRSC09744
-3.09	0.313	CG12826	DRSC06175
-0.982	0.401	dan (distal antenna)	DRSC14406
-0.592	-0.797	CG30419	DRSC04208
-1.92	0.528	CG30419	DRSC04209
0.505	-0.157	CG30419	DRSC22519
-0.168	0.663	gcm (glial cells missing)	DRSC03536
-0.417	-0.547	CG12507	DRSC19463
-0.847	0.0401	hppy (happyhour)	DRSC07014
0.169	1.02	hppy (happyhour)	DRSC07015
0.408	0.695	hppy (happyhour)	DRSC07016
